Results deposited as PubChem BioAssay AID504793 (Drosophila RNAi Screening Center, 2011).
Assay: 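Whole-genome screen for parts of the DNA damage checkpoint at G2/M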 (primary screen). Cells: Drosophila S2R+ cells. Reagent: long dsRNA against Drosophila genes, about 0.25 µg dsRNA per well. Duration: 4 days of dsRNA, then 4 hours of drug before read-out. Conditions: doxorubicin 0.5 µM for 4 hours to cause double-strand breaks, in cells also given a low, harmless dose of dsRNA against nbs to sensitise the assay. Measured: 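Mitotic index as the number of phospho-histone H3-positive cells in each well following doxorubicin, given as raw counts without normalisation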. Direction: mitotic cells: higher = more cells in mitosis, weaker G2 arrest. Call rule: 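Genes are called active only when high mitotic counts were reproduced with independent dsRNAs and mitosis was checked for delay without damage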. Calls: active = confirmed in follow-up tests; inactive = not confirmed.
The screen tested about 23,000 reagents; this is a random part of those with a known target gene and a result. In the full data, 62 (0.27%) were called active. 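Calls come from follow-up tests whose scores are not deposited, so confirmed genes may have low counts here; counts are not normalised per plate.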 Raw values are not corrected between plates.

gene,PubChem SID,"mitotic cells, replicate 1",Call
CG5079,SID104202418,8,inactive
pall,SID104190156,11,inactive
Spn,SID104187778,11,inactive
Spn,SID104188282,5,inactive
Spn,SID104188283,9,inactive
ZnT86D,SID104195883,6,inactive
CG8728,SID104187043,8,inactive
